Experimental data from article PMC9491610.
Numbering of substitutions follows the chain as printed. No constants are given. Whether binding was seen depends on the method and setting. In cells and extracts the contact can be indirect. Some entries that bind do so weakly or less than the wild type.

Protein sequences, listed by entry. Tags and fused reporters are not part of them. Lines headed by an entry give the natural chain unless they say otherwise; changes in a name come on top.
UniProt P09733: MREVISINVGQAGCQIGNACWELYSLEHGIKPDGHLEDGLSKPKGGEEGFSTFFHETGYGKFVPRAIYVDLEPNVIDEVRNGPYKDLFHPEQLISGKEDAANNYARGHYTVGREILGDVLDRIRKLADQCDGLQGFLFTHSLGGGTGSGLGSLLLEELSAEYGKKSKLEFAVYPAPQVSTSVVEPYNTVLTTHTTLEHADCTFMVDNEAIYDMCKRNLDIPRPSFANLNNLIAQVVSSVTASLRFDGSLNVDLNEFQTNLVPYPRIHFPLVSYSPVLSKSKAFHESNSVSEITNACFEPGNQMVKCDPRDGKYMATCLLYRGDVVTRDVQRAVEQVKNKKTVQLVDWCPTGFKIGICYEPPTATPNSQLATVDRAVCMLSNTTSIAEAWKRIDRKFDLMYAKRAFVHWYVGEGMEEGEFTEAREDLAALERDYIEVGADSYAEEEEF

How the values were obtained:
Test in all cases: co-IP; Stu2-HA precipitated with anti-HA magnetic beads from 67 mg cryo-milled yeast extract in PEM buffer (80 mM PIPES, 1 mM EGTA, 1 mM MgCl2, pH 6.8); precipitate blotted with anti α-tubulin (anti-Tub1) as surrogate for αβ-tubulin
[1] = target: T1, Stu2-K870Q-3xHA (S. cerevisiae) (UniProt P46675)
T1 sequence: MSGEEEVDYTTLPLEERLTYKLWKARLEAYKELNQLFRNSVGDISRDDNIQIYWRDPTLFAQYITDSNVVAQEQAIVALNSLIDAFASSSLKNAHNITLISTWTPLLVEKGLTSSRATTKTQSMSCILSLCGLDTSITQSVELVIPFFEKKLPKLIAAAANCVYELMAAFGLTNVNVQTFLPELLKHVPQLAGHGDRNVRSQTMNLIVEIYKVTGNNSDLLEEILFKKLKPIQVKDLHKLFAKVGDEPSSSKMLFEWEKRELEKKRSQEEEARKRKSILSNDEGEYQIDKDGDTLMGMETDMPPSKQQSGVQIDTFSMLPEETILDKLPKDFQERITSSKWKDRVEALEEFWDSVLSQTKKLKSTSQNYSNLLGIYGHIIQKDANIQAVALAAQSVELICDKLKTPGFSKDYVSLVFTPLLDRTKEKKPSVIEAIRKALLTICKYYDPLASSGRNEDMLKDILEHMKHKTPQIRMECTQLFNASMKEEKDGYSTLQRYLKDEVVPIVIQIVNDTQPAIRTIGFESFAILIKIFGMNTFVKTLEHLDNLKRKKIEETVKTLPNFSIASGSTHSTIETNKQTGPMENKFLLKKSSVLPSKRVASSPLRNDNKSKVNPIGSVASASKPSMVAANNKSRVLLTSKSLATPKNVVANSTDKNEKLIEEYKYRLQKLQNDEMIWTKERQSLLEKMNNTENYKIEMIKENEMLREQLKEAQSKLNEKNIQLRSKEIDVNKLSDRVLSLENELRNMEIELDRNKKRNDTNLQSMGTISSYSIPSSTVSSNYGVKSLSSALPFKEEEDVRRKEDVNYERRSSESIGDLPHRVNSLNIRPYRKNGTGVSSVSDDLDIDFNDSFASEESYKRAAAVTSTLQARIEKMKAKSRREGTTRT

[2] = target: T2, Stu2-K870R-3xHA (S. cerevisiae) (UniProt P46675)
T2 sequence: T1 sequence with Q870R

[3] = target: T3, Stu2-K252R-3xHA (S. cerevisiae) (UniProt P46675)
T3 sequence: T1 sequence with K252R, Q870K

Measured: binding

αβ-tubulin heterodimer (from UniProt P09733 1-447; P02557 1-457) (complex)
binds: [1] | [2] | [3]
